Laboratory results reported in PubChem BioAssay AID504834 (National Center for Advancing Translational Sciences (NCATS), 2011).
The whole screen tested about 320,000 compounds, of which about 22,000 (6.9%) were called active. The shares of active, inactive and inconclusive entries below differ from those in the screen. Calls come from the whole dose curve; as a rule, active = well fitted inhibition curve with a large enough effect; inconclusive = small, poorly fitted or top-dose-only effect, or another doubt; inactive = no such curve, though single readings can be large or run the other way. Potencies of inconclusive entries are doubtful fits and often do not repeat.

assay: Primary qHTS for delayed death inhibitors of the malarial parasite plastid, 96 hour incubation; conditions: P. falciparum luciferase reporter growth; series mostly up to 28.7 µM
In short: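 Parasite growth measured via integrated firefly luciferase reporter in P. falciparum. Infected erythrocytes at 2% hematocrit, 0.05% parasitemia final were treated 96 hours at 37 C under 5% CO2, and luminescence was read.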
Potency is the fitted concentration of half-maximal effect.

Structure (SMILES)	Potency
COc1ccc(OC)c(-n2c(SC)nnc2-c2c[nH]c3ccccc23)c1	active: 4.15 µM
COC(=O)c1nc2nc(C)cc(C(F)(F)F)n2n1	active: 11.7 µM
COc1ccc(N2CC(NC(=O)N3CCN(c4ccccc4)CC3)CC2=O)cc1 (configuration not stated)	inactive
CCOC(=O)C1(C)NC(c2ccco2)C2C(=O)N(c3ccccc3)C(=O)C21 (configuration not stated)	inconclusive: 11.7 µM [inhibitor, partial curve, poor fit]
CCC(=NCc1ccco1)c1c(O)n(Cc2ccccc2)c(=O)[nH]c1=O	inconclusive: 14.7 µM [inhibitor, single point]
COc1cc(OC)c2ccc(=O)oc2c1C(CCN1CCN(c2ccccc2)CC1)c1ccc2c(c1)OCO2 (configuration not stated)	active: 9.28 µM
O=C(NCc1cccnc1)c1cc(C(=O)C2CC2)c[nH]1	inconclusive: 0.0147 µM [inhibitor, full curve]
COc1ccc(C(=O)N(C)CCCC2CCCC2)cc1OC1CCN(C(C)C)CC1	inactive
Cc1ccc(OCC(=O)NC(=S)Nc2cccc(NC(=O)c3ccccc3Cl)c2)cc1	inactive
O=C(O)c1ccc(N2CC3CC(C2)c2cccc(=O)n2C3)c(NS(=O)(=O)c2cccc(C(F)(F)F)c2)c1 (configuration not stated)	inactive
Cc1cc2ccccn2c1C(C[N+](=O)[O-])c1c(F)cccc1Cl (configuration not stated)	inconclusive: 11.7 µM [inhibitor, single point]
CCN(CC)CCCN(Cc1cc2cc3c(cc2[nH]c1=O)OCO3)C(=S)Nc1ccccc1OC	inactive
CC(=O)NCCC1CCN(C(=O)C2CCC(=O)N(C3CCCC3)C2)CC1 (configuration not stated)	inconclusive: 11.7 µM [inhibitor, single point]
COc1ccc(NS(=O)(=O)c2cccc(NC(=O)CCC(=O)c3ccc(Cl)cc3)c2)cc1	inconclusive: 11.7 µM [inhibitor, single point]
CCCNC(=O)c1ccc2c(=O)n(Cc3ccco3)c(=S)[nH]c2c1	inconclusive: 1.85 µM [inhibitor, partial curve, poor fit]
COc1ccc(NC(=O)C(C)Sc2nnc3c4c(nc(-c5ccc(OC)cc5)n23)CC(C)(C)OC4)cc1 (configuration not stated)	inconclusive: 0.928 µM [inhibitor, partial curve, poor fit]
O=C(O)CCC(=O)NCC(=O)c1ccc(F)cc1	inactive
O=C(c1ccco1)N1CCN(S(=O)(=O)c2ccc(S(=O)(=O)NC3CC3)cc2)CC1	inconclusive: 10.4 µM [inhibitor, single point]
O=C1/C(=C\c2ccco2)NC(=S)N1c1ccccc1	inconclusive: 18.5 µM [inhibitor, single point]
CCc1cccc2c(N=O)c(O)[nH]c12	inactive
O=S(=O)(Nc1cccc(-c2ccc3nncn3n2)c1)c1cc(F)ccc1F	inactive
COc1ccc(Nc2cc(C)nc(N3CCN(C(=O)c4ccc5c(c4)OCO5)CC3)n2)cc1	inconclusive: 3.7 µM [inhibitor, single point]
Cc1cc2nc(-c3ccc(SCC(=O)Nc4ccc(S(=O)(=O)N5CCCC5)cc4)nc3)[nH]c2cc1C	inconclusive: 16.5 µM [inhibitor, single point]
COCCNC(=O)C(Cc1c[nH]c2ccccc12)NC(=O)OCc1ccccc1 (configuration not stated)	inactive

Structure (SMILES)	Potency
CNC(=S)N(Cc1cccs1)Cc1cc2ccc(OC)cc2[nH]c1=O	inconclusive: 16.5 µM [inhibitor, single point]
CCN(CC)CCn1c(NCc2ccc(C)o2)nc2ccccc21	inconclusive: 9.28 µM [inhibitor, single point]
O=C(CCNC(=O)c1ccc(Br)o1)NC1CCCC1	inactive
O=C(CCC1CCCN(C(=O)c2ccsc2)C1)N1CCN(c2ccccn2)CC1 (configuration not stated)	inconclusive: 7.38 µM [inhibitor, partial curve]
O=C(NNC(=O)c1ccccc1OCc1ccccc1Cl)c1csc(N2CCOCC2)n1	inconclusive: 10.4 µM [inhibitor, partial curve, poor fit]
CCOc1ccc(S(=O)(=O)N2CCCCC2)cc1NC(=O)C1COc2ccccc2O1 (configuration not stated)	inconclusive: 9.28 µM [inhibitor, partial curve, poor fit]
Cc1ccc(NC(=O)CN(C)CC(=O)Nc2sc3c(c2C(N)=O)CCC3)cc1	inconclusive: 11.7 µM [inhibitor, single point]
Oc1sc(C=Nc2ccccc2)c2ccccc12	inconclusive: 18.5 µM [inhibitor, single point]
Cn1c(=O)c2[nH]c(-c3ccccc3Cl)c(O)c2n(C)c1=O	active: 13.1 µM
CCN(CC)c1ccc(S(=O)(=O)N2CCCCC2)cc1NC(=O)C1=COCCO1	active: 10.4 µM
CCOC(=O)c1nn(-c2ccccc2)c(C(=O)OCC)c1N	inactive
NC(=O)C1CCN(C(=O)c2ccc3nc(-c4ccccc4)c(-c4ccccc4)nc3c2)CC1	inconclusive: 5.86 µM [inhibitor, partial curve, poor fit]
O=C(O)CNC(=O)CC1S/C(=N/N=C/c2ccccc2O)NC1=O (configuration not stated)	inactive
CCN1CCc2c(sc(NC(=O)c3ccc(S(=O)(=O)N(CC)c4ccccc4)cc3)c2C(N)=O)C1	active: 13.1 µM
Oc1ccc(/C=N/N=C/c2ccc(O)cc2)cc1	inactive
O=C(NC(=S)Nc1cc(C(F)(F)F)ccc1N1CCOCC1)c1sc2ccccc2c1Cl	active: 3.29 µM
COc1cccc(Nc2nnc(SCC(=O)N(CC(C)C)CC(C)C)s2)c1	active: 1.31 µM
Cc1nn(-c2ccccc2)c(Cl)c1/C=N/NC(=O)c1cccnc1	inconclusive: 13.1 µM [inhibitor, partial curve]
O=C1CCCC2=C1C(c1ccncc1)Nc1ccccc1N2 (configuration not stated)	active: 10.4 µM
N/N=C(\c1ccccc1)c1cc(Br)ccc1N	inconclusive: 18.5 µM [inhibitor, single point]
Nc1nc2c(s1)CCCCCCCCCC2	inconclusive: 10.4 µM [inhibitor, single point]
Cc1ccc(OCC(=O)NNC(=O)CSc2ncnc3sc(C)c(C)c23)cc1	inconclusive: 10.4 µM [inhibitor, partial curve, poor fit]
COc1ccc(OCC(=O)Nc2ccccc2C(=O)Nc2ccc(C(=O)O)cc2)cc1	inactive
Cc1ccc(COCCN2CCN(S(=O)(=O)c3ccc(C)cc3)CCC2=O)cc1	inconclusive: 18.5 µM [inhibitor, single point]

Entries listed so far with fluorine (6):
Structure (SMILES)	Potency
COC(=O)c1nc2nc(C)cc(C(F)(F)F)n2n1	active: 11.7 µM
O=C(O)c1ccc(N2CC3CC(C2)c2cccc(=O)n2C3)c(NS(=O)(=O)c2cccc(C(F)(F)F)c2)c1 (configuration not stated)	inactive
Cc1cc2ccccn2c1C(C[N+](=O)[O-])c1c(F)cccc1Cl (configuration not stated)	inconclusive: 11.7 µM [inhibitor, single point]
O=C(O)CCC(=O)NCC(=O)c1ccc(F)cc1	inactive
O=S(=O)(Nc1cccc(-c2ccc3nncn3n2)c1)c1cc(F)ccc1F	inactive
O=C(NC(=S)Nc1cc(C(F)(F)F)ccc1N1CCOCC1)c1sc2ccccc2c1Cl	active: 3.29 µM

Remaining list, next part

Structure (SMILES)	Potency
C#CCNC(=O)C1=C[C@@H](c2ccc(Br)cc2)C[C@@H](OCCCCO)O1	active: 8.28 µM
Cc1ccc(NC(=S)/N=C(\N)Nc2nc(C)c3cc(C)ccc3n2)c(C)c1	inconclusive: 1.47 µM [inhibitor, full curve, poor fit]
Cc1ccc(/C=C2\Oc3c(ccc(O)c3CN3CCN(C)CC3)C2=O)cc1	inconclusive: 6.57 µM [inhibitor, partial curve]
C=CCn1c(=S)sc2c(=O)[nH]cnc21	inactive
CCOc1ccc(OCC)c(NC(=O)c2[nH]c(C)c(C(C)=O)c2C)c1	inactive
CCC1S/C(=N/N=C/c2ccco2)N(Cc2ccccc2)C1=O (configuration not stated)	inconclusive: 0.0586 µM [inhibitor, full curve, poor fit]
CCc1cc(Br)ccc1NC(=S)NCCc1ccccc1	inconclusive: 18.5 µM [inhibitor, single point]
Cc1ccc(-n2nc3c(c2NC(=O)c2c(-c4ccccc4Cl)noc2C)CS(=O)(=O)C3)c(C)c1	inconclusive: 1.04 µM [inhibitor, partial curve, poor fit]
CCOCc1c(C(=O)OCC(=O)Nc2ccccc2C(N)=O)oc2ccccc12	inactive
O=C(Nc1cccn(Cc2ccc(F)cc2)c1=O)NC1CCCCC1	inconclusive: 0.0657 µM [inhibitor, full curve, poor fit]
Cc1c(C(=O)O)sc2ncn(C)c(=O)c12	inconclusive: 18.5 µM [inhibitor, single point]
NS(=O)(=O)c1cccc(NC(=O)COc2ccc([N+](=O)[O-])cc2)c1	inactive
COc1cc(OC)cc(C(=O)NCCCN2CCN(CCCNC(=O)c3cc(OC)cc(OC)c3)CC2)c1	inconclusive: 13.1 µM [inhibitor, single point]
Cc1cc(C)cc(NC(=S)/N=C(\N)Nc2nc(C)c3ccccc3n2)c1	active: 13.1 µM
Cc1cc(NC(=O)C2CC(=O)N(c3ccc(F)cc3)C2)no1 (configuration not stated)	inactive
CC(Cl)C(=O)NNc1cccc(Cl)n1 (configuration not stated)	inactive
Cc1c(Cl)cccc1NC(=O)NN1CCN(C)CC1	inactive
CCc1cc(Cn2nc(-c3ccccc3)cc2C(=O)NCc2ccccc2OC)on1	inconclusive: 10.4 µM [inhibitor, partial curve, poor fit]
CCN(Cc1ccncc1)C(=O)CCc1nnc(CCC2CCCCC2)o1	inconclusive: 13.1 µM [inhibitor, single point]
Cn1c(SCC(=O)c2ccccc2)nnc1-c1cnccn1	active: 8.28 µM
COCc1[nH]nc2c1C(c1cc(OC)c(O)c(OC)c1)C(C#N)=C(N)O2 (configuration not stated)	inconclusive: 18.5 µM [inhibitor, single point]
Cn1c(=O)c2c(nc(Oc3ccc4ccccc4c3)n2C)n(C)c1=O	inconclusive: 10.4 µM [inhibitor, partial curve, poor fit]
CCC(CC)Nc1ccc(C(CC(N)=O)NC(=O)c2ccccc2)cc1[N+](=O)[O-] (configuration not stated)	inconclusive: 16.5 µM [inhibitor, single point]
CC1=CC(=O)N(c2cccc(C(F)(F)F)c2)C1c1ccc(Cl)cc1 (configuration not stated)	inconclusive: 13.1 µM [inhibitor, partial curve, poor fit]
